# Measured values reported in PubChem BioAssay AID493014 (National Center for Advancing Translational Sciences (NCATS), 2011).
# The campaign covered roughly 340,000 compounds. About 170 (0.05%) were called active. This list was built around the results that the source calls inconclusive (neither active nor inactive); the mix of calls is not that of the screen. Calls come from the whole dose curve; as a rule, active = well fitted inhibition curve with a large enough effect in the signal ratio, with a control signal flat (not every such curve was filed as active); inconclusive = small, poorly fitted or top-dose-only effect, or effect the other way, or a change in a side signal; inactive = flat fitted curve, though single readings scatter; the % refers to the signal ratio. A potency beside an inconclusive call is a rough fit, not a confirmed value.
# Test: qHTS Assay to Find Inhibitors of Chronic Active B-Cell Receptor Signaling;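 for activity change, negative = inhibition: plate controls were basal doxycycline-induced cells for no effect and cells given 10 µM MG132 for full effect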
# Conditions: ABC-DLBCL IkBa-CBG/CBR reporter, luminescence ratio (green luciferase fused to IkBa over red control in TMD8 lymphoma cells), 4 h; activity change, negative = inhibition: at 46.1 µM (top of the series)
# How it was run: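 Cell line TMD8 (human ABC DLBCL), stably expressing tet-inducible CBG68-IkBa fusion and CBR; IMDM/0.5% FBS; cpd up to 46 uM; dox induction, 4 h, 37C/5% CO2; dual luminescence; green/red ratio; MG132 control.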
# Potency is the fitted concentration of half-maximal effect.
SMILES,"activity change, negative = inhibition",Potency
O=C1CC(c2ccccc2Oc2cccc(Cl)c2)C(n2cncn2)C(=O)C1C1NCCc2ccccc21 (stereo not given),inconclusive: 8.72%,–
CCOCCCNC(=O)c1cc(-c2ccc(Br)s2)nc2ccccc12,inconclusive: 7.42%,–
CCCNC(=O)C(=O)N/N=C/c1cccs1,–,"inconclusive: 18.4 µM [falling, single point]"
COCCCn1c(SCC(=O)Nc2ccc(C(=O)OC)cc2)nc2ccccc2c1=O,inconclusive: 9.07%,–
COC(=O)c1ccc(Cn2cnc3ccccc3c2=O)cc1,inconclusive: 17.5%,–
CCC(=O)Nc1nc(CC(=O)Nc2ccccc2OC)cs1,inactive,–
COc1cccc2sc(N(Cc3cccnc3)C(=O)Cc3ccccc3)nc12,–,"inconclusive: 4.47 µM [rising, full curve, poor fit]"
COc1cc(-c2cc(=O)c3c(O)cc(O)cc3o2)ccc1O,–,"inconclusive: 22.4 µM [rising, single point]"
Cc1nc2ccccc2c(=O)n1-c1ccc(F)c(NS(=O)(=O)c2ccccc2F)c1,inconclusive: 9.24%,–
N/C(=N\OC(=O)COc1ccc(Cl)cc1Cl)c1cccnc1,inconclusive: 3.26%,–
COc1cc2nc(/C=C/c3cc(OC)c(OC)c(OC)c3)sc2cc1SC,–,"inconclusive: 18.4 µM [falling, partial curve]"
CC(OC(=O)c1snc(C(=O)NC2CCCCC2)c1N)C(=O)NC1CCCCC1 (stereo not given),–,"inconclusive: 1.03 µM [falling, partial curve, poor fit]"
COC(=O)c1cccc(NC(=O)CCSc2ccc(Cl)cc2)c1C,inconclusive: 2.39%,–
COc1ccc(NC(=O)NC2(C(=O)N3CCN(C)CC3)CCCCC2)cc1,inactive,–
Cc1ccc(/C=N/n2c(-c3ccco3)n[nH]c2=S)cc1,–,"inconclusive: 35.5 µM [falling, single point]"
O=C(O)c1ccc(Cl)c(S(=O)(=O)Nc2ccc(S(=O)(=O)N3CCCC3)cc2)c1,inactive,–
CN1C(=O)N(CC(=O)N2CCN(S(=O)(=O)Cc3ccccc3)CC2)C(=O)C12CCCCC2,inactive,–
COc1ccccc1-n1c(CNC(=O)c2ccco2)nnc1SCC(=O)Nc1nccs1,inconclusive: -20.3%,–
CCCn1c(SCc2ccc(C(=O)OC)o2)nc2ccccc2c1=O,inconclusive: -1.27%,–
C=CCN1C(=O)C(Cc2ccc(C)cc2)S/C1=N/N=C/c1ccco1 (stereo not given),inconclusive: 1.28%,–
CCN1CCN(CCn2c(=S)[nH]c3ccccc3c2=O)CC1,inactive,–
Cc1c(N=C/C=C2\N(C)c3ccccc3C2(C)C)c(=O)n(-c2ccccc2)n1C,inconclusive: 3.28%,–
CC1(C)N=C(SCC(=O)Nc2ccccc2)C(c2ccc(Cl)cc2)=N1,–,"inconclusive: 20.6 µM [falling, partial curve]"
O=c1[nH]nc(Cc2ccc(-c3ccccc3Cl)o2)c2ccccc12,–,"inconclusive: 16.4 µM [falling, partial curve]"
Cc1cccc2sc(NC(=O)CCn3cccc3)nc12,–,"inconclusive: 14.1 µM [falling, partial curve]"
CSCCC(=O)Nc1ccc(C(C)=O)cc1,inactive,–
CC(=O)c1ccc(N2CCN(C(=O)CCCc3nc4ccccc4s3)CC2)cc1,inactive,–

SMILES,"activity change, negative = inhibition",Potency
CCOC(=O)N1CCN(c2cc(N3CCN(CC)CC3)c(F)cc2[N+](=O)[O-])CC1C (stereo not given),inconclusive: 0.678%,–
Cc1ccc(S(=O)(=O)/N=C(/NC(=S)Nc2ccccc2)c2ccccc2)cc1,inconclusive: -20%,–
COc1ccc(CN(C)c2ccc(S(=O)(=O)N3CCN(C)CC3)cc2[N+](=O)[O-])cc1OC,inactive,–
Cn1cc(C(CC(=O)O)C(=O)O)c2ccccc21 (stereo not given),inconclusive: -3.48%,–
N#C/C(C(=O)Nc1ccc(Cl)cc1)=C(/S)Nc1ccccc1,inconclusive: -9.58%,–
O=C(c1nc2ccccn2c1CN1CCCC(OCc2ccccc2)C1)N1CCCC1 (stereo not given),inactive,–
COc1ccc(C(=O)Oc2c(CN3CCOCC3)cc(Cl)c3cccnc23)cc1,–,"inconclusive: 23.1 µM [falling, single point]"
Cn1c(N)c(C(=O)COC(=O)CC(NC(N)=O)c2ccc(Cl)cc2)c(=O)n(C)c1=O (stereo not given),–,"inconclusive: 0.651 µM [rising, full curve, poor fit]"
O=S(=O)(CCc1nc2ccccc2s1)c1ccc2ccccc2c1,–,"inconclusive: 2.06 µM [rising, full curve, poor fit]"
CCOC(=O)Cn1nnnc1CN(CCc1ccccc1)Cc1cc2cc(CC)ccc2[nH]c1=O,–,"inconclusive: 23.1 µM [falling, single point]"
Cc1ccc(-c2cc(C(F)(F)F)c(C#N)c(=O)[nH]2)cc1,inconclusive: 8.7%,–
CC(C)c1ccc(NC2CCCN(C(=O)CCN3CCCCC3=O)C2)cc1 (stereo not given),inconclusive: -4.67%,–
CC(C)(C)OC(=O)N1O[C@H]2C[C@@H]1[C@@H]1[C@@H]2N=NN1C12CC3CC(CC(C3)C1)C2,inactive,–
CSc1nnc(NC(=O)c2nc(S(=O)(=O)Cc3ccccc3F)ncc2Cl)s1,inconclusive: 9.63%,–
N#C/C(=C\c1ccc(OCC(N)=O)cc1)S(=O)(=O)c1ccccc1,inactive,–
Cc1c(Cc2ccccc2)c(=O)oc2cc(O)ccc12,–,"inconclusive: 12.6 µM [falling, partial curve, poor fit]"
COc1ccc(S(=O)(=O)NCCSc2ccc(Cl)cc2)cc1OC,–,"inconclusive: 23.1 µM [falling, single point]"
O=S(=O)(NCCOCCNS(=O)(=O)c1ccccc1)c1ccccc1,inconclusive: 9.2%,–
CCc1nc2nc(C)c(NS(=O)(=O)c3cccs3)c(=O)n2[nH]1,inconclusive: 0.0586%,–
O=C(NCCCN1CCOCC1)C(=O)N/N=C/c1c2ccccc2cc2ccccc12,inactive,–
CCCC(=O)Nc1ccc2oc(-c3cncc(Br)c3)nc2c1,inactive,–
COc1cccc2cc(C(C)N(CCCN3CCOCC3)C(=S)Nc3c(C)cccc3C)oc12 (stereo not given),inconclusive: -0.413%,–
S=c1[nH]cc(-c2ccccc2)[nH]1,inconclusive: 19.2%,–
COc1ccc(NC(=O)c2cnc3n(c2=O)CCS3)cc1OC,inconclusive: 3.49%,–
O=C(N/N=C/c1ccco1)c1cc2ccccc2o1,–,"inconclusive: 17.8 µM [falling, partial curve]"
O=C(NCCCCNC(=O)c1ccccc1F)c1ccccc1F,inconclusive: -3.73%,–
COC(=O)C1=C(N)Oc2cc(N(C)C)ccc2C1c1ccccc1OC (stereo not given),inconclusive: -19.1%,–

# 6 entries already listed, ordered by number of heavy atoms, largest number first.
SMILES,"activity change, negative = inhibition",Potency
COc1cccc2cc(C(C)N(CCCN3CCOCC3)C(=S)Nc3c(C)cccc3C)oc12 (stereo not given),inconclusive: -0.413%,–
O=C(c1nc2ccccn2c1CN1CCCC(OCc2ccccc2)C1)N1CCCC1 (stereo not given),inactive,–
Cn1c(N)c(C(=O)COC(=O)CC(NC(N)=O)c2ccc(Cl)cc2)c(=O)n(C)c1=O (stereo not given),–,"inconclusive: 0.651 µM [rising, full curve, poor fit]"
Cc1ccc(S(=O)(=O)/N=C(/NC(=S)Nc2ccccc2)c2ccccc2)cc1,inconclusive: -20%,–
COC(=O)c1cccc(NC(=O)CCSc2ccc(Cl)cc2)c1C,inconclusive: 2.39%,–
COC(=O)c1ccc(Cn2cnc3ccccc3c2=O)cc1,inconclusive: 17.5%,–

# Further records.

SMILES,"activity change, negative = inhibition",Potency
O=C(O)c1ccccc1NC1CCCCC1NS(=O)(=O)c1ccccc1 (stereo not given),inconclusive: 18.8%,–
Cc1cc(=O)n2cccc(O)c2n1,–,"inconclusive: 22.4 µM [falling, single point]"
C/C(=N\NC(=O)c1cccnc1)c1c(O)cc(C)oc1=O,–,"inconclusive: 20.6 µM [falling, single point]"
O=S(=O)(c1ccc(F)c(Cl)c1)N1CCCC1,inconclusive: 11.9%,–
Cc1ccc2nc(-c3ccc(NS(=O)(=O)c4c(C)n(C)c(=O)n(C)c4=O)cc3)sc2c1,inactive,–
Oc1[nH]c2ccccc2c1N=NC(=S)NCCc1ccccc1,–,"inconclusive: 29.1 µM [falling, single point]"
O=C(O)CC1(CC(=O)Nc2ccc3sccc3c2)CCCCC1,–,"inconclusive: 31.6 µM [rising, single point]"
COc1ccc(C2(C(=O)Nc3ccc(C(=O)O)cc3)CCOCC2)cc1,inconclusive: 3.64%,–
CN(C)S(=O)(=O)c1ccc(Cl)c(NC(=O)CN2C(=O)NC(C)(C3CC3)C2=O)c1 (stereo not given),inactive,–
CCOC(=O)c1cnc(SCC(=O)c2ccc(Cl)cc2)nc1N,–,"inconclusive: 29.1 µM [falling, single point]"
COc1cc2c(cc1OC)C(c1ccccc1[N+](=O)[O-])N(C(C)=O)CC2 (stereo not given),inconclusive: -3.71%,–
Cc1ccc(C)c2[nH]c(=O)c(CN(Cc3nnnn3C3CCCCC3)CC3CCCO3)cc12 (stereo not given),inconclusive: -5.38%,–
Cc1ccc(O)c(C(=O)c2cc(C#N)c(=O)n(C(C)c3ccccc3)c2)c1 (stereo not given),inconclusive: -1.85%,–
CC(NC(=O)c1ccc([N+](=O)[O-])o1)C1CC2CCC1C2 (stereo not given),inconclusive: -0.98%,–
Cc1cc2oc(=O)cc(CN3CCCc4ccccc43)c2cc1C,inconclusive: -1.43%,–
O=C(N/N=C/c1cn(-c2ccccc2)nc1-c1cccnc1)c1ccccc1,–,"inconclusive: 22.4 µM [falling, partial curve]"
NNC(=O)c1nnn(-c2nonc2N)c1-c1cccs1,inconclusive: -0.464%,–
CN(c1ccc(C(=O)Nc2ccc3c(c2)OCO3)cc1)S(C)(=O)=O,inactive,–
COc1ccc(Oc2c(O)c3ccccc3n(C)c2=O)cc1,inactive,–
CN(C)c1ccc(/C=C(/NC(=O)c2ccccc2)C(=O)N/N=C/c2ccc([N+](=O)[O-])c(O)c2)cc1,–,"inconclusive: 16.4 µM [falling, partial curve, poor fit]"
Cc1nn(-c2ccc(Cl)cc2)c2[nH]c(=O)c(CNCc3ccc4c(c3)OCO4)cc12,inconclusive: -0.517%,–
CCCSc1ccc2nc(NC(=O)OC)[nH]c2c1,inconclusive: -8.3%,–
CCC(C)NC(=O)CSc1c2c(nc3ccccc13)CCCC2 (stereo not given),–,"inconclusive: 12.6 µM [falling, partial curve]"
CCCCc1ncc(CN2CCC(n3nccc3NC(=O)c3ccccc3OC)CC2)[nH]1,inactive,–
CC(C)(C)C(=O)N1CCN(C(=O)c2ccco2)CC1,inactive,–
O=C(COC(=O)c1cccnc1Nc1ccccc1F)NCCN1C(=O)CSC1=O,inconclusive: 12.1%,–
